Results: patent US8349864B2, “Pyrano [3,2-C] pyridones and related heterocyclic compounds as pharmaceutical agents for treating disorders responsive to apoptosis, antiproliferation or vascular disruption, and the use thereof” (New Mexico Technical Research Foundation, priority 2009, dated 2013)
Some results were stated once for a whole list of compounds, not compound by compound.

Tested on: Jurkat cells
Assay: Flow cytometric annexin-V/propidium iodide apoptosis assay
Format: cell-based, human
Conditions: 5 μM, 36 h
Protocol: Since many clinically used anticancer agents induce apoptosis in cancer cells, we tested the pyranopyridone analogues for their ability to induce apoptosis in Jurkat (model for human T-cell leukemia) cells using the flow cytometric annexin-V/propidium iodide assay (FIG. 1).
FIG. 1 illustrates induction of apoptosis in Jurkat cells treated for 36 h with DMSO control, colchicine (5 μM) and selected pyridone library analogues (5 μM) in the flow cytometric annexin-V/propidium iodide assay. Error bars represent data

SMILES | induction of apoptosis in Jurkat cells
COc1cc(C2C(C#N)=C(N)Oc3cc(C)n(C)c(=O)c32)cc(Br)c1O (stereo not shown) [Compound 11, 2-Amino-4-(3-bromo-4-hydroxy-5-methoxyphenyl)-6,7-dimethyl-5-oxo-5,6-dihydro-4H-pyrano[3,2-c]pyridine-3-carbonitrile] | strong inducers of apoptosis
Cc1cc2c(c(=O)n1C)C(c1ccc(F)c(Br)c1)C(C#N)=C(N)O2 (stereo not shown) [Compound 13, 2-Amino-4-(3-bromo-4-fluorophenyl)-6,7-dimethyl-5-oxo-5,6-dihydro-4H-pyrano[3,2-c]pyridine-3-carbonitrile] | strong inducers of apoptosis
CCOc1c(Br)cc(C2C(C#N)=C(N)Oc3cc(C)n(C)c(=O)c32)cc1OC (stereo not shown) [Compound 10, 2-Amino-4-(3-bromo-4-ethoxy-5-methoxyphenyl)-6,7-dimethyl-5-oxo-5,6-dihydro-4H-pyrano[3,2-c]pyridine-3-carbonitrile] | strong inducers of apoptosis
COc1cc(C2C(C#N)=C(N)Oc3cc(C)n(C)c(=O)c32)cc(Br)c1OC (stereo not shown) [Compound 9, 2-Amino-4-(3-bromo-4,5-dimethoxyphenyl)-6,7-dimethyl-5-oxo-5,6-dihydro-4H-pyrano[3,2-c]pyridine-3-carbonitrile] | strong inducers of apoptosis
Cc1cc2c(c(=O)n1C)C(c1cccc(Br)c1)C(C#N)=C(N)O2 (stereo not shown) [Compound 14, 2-Amino-4-(3-bromophenyl)-6,7-dimethyl-5-oxo-5,6-dihydro-4H-pyrano[3,2-c]pyridine-3-carbonitrile] | strong inducers of apoptosis
COc1cc(C2C(C#N)=C(N)Oc3cc(C)n(C)c(=O)c32)cc(Br)c1OC(C)=O (stereo not shown) [Compound 12, 4-(2-Amino-3-cyano-6,7-dimethyl-5-oxo-5,6-dihydro-4H-pyrano[3,2-c]pyridin-4-yl)-2-bromo-6-methoxyphenyl acetate] | strong inducers of apoptosis
Cc1cc2c(c(=O)n1C)C(c1ccc(N(C)C)c(Br)c1)C(C#N)=C(N)O2 (stereo not shown) [Compound 8, 2-Amino-4-[3-bromo-4-(dimethylamino)phenyl]-6,7-dimethyl-5-oxo-5,6-dihydro-4H-pyrano[3,2-c]pyridine-3-carbonitrile] | strong inducers of apoptosis
